Laboratory results: PubChem BioAssay AID1259308 (NCATS, 2017)
This is one part, drawn at random, of about 59,000 deposited reagents. About 1,510 of all reagents (2.6%) count as active. 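Calls use total luciferase alone and ignore viability, so some active siRNAs may act by altering cell number.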 Unmarked entries are inactive. Further read-outs or replicates are left out here.

Purpose: 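Knock-downs that increase output of a recombinant reporter protein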 (primary screen)
System: human HEK293 embryonic kidney cells stably expressing firefly luciferase (HEK-CMV-Luc2-Hygro)
Knock-down reagent: single siRNA against human genes, 0.8 pmol siRNA per well
Duration: 72 h
Measured: 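Reporter luminescence and viable-cell signal on separate replicate plates, given as percent of non-targeting control and median/MAD z-scores, plus per-cell luciferase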
Direction: total luciferase, z-score and total luciferase, % of control: higher = more reporter protein produced; luciferase per cell, z-score: higher = more reporter output per viable cell
Active means: 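Active when the median/MAD z-score for overall luciferase is greater than 3; a gene was taken forward for validation with new siRNAs if at least two of its three siRNAs passed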
Meaning of the calls: active = raised luciferase; inactive = no rise

gene knocked down | PubChem SID | total luciferase, z-score | total luciferase, % of control | luciferase per cell, z-score
CRYBB2 (GeneID 1415) | SID160748647 | -0.796 | 66.1 | -0.805
CRYBB2 (GeneID 1415) | SID160748658 | 3.17 (active) | 145 | 2.17
CRYBB2 (GeneID 1415) | SID160748670 | -0.575 | 70.5 | -0.431
EVPL (GeneID 2125) | SID160730775 | -0.0852 | 80.2 | 0.144
EVPL (GeneID 2125) | SID160762478 | 1.44 | 111 | 2.14
EVPL (GeneID 2125) | SID160762497 | 0.193 | 85.7 | -0.131
ADGRE3 (GeneID 84658) | SID160752529 | -0.291 | 76.1 | -0.28
ADGRE3 (GeneID 84658) | SID160752530 | -0.128 | 79.3 | 0.114
ADGRE3 (GeneID 84658) | SID160752531 | -0.0498 | 80.9 | -0.494
TMED2 (GeneID 10959) | SID160729624 | -0.811 | 65.7 | -0.79
TMED2 (GeneID 10959) | SID160729625 | -0.308 | 75.8 | 0.0823
TMED2 (GeneID 10959) | SID160729626 | 0.0943 | 83.8 | -0.217
PRNT (GeneID 149830) | SID160732564 | -1.48 | 52.5 | -1.25
PRNT (GeneID 149830) | SID160758876 | 0.408 | 90 | 1.64
PRNT (GeneID 149830) | SID160758877 | 0.509 | 92 | 0.223
PPIAP35 (GeneID 128192) | SID160732438 | 0.303 | 87.9 | 0.0358
PPIAP35 (GeneID 128192) | SID160732439 | 0.19 | 85.7 | 0.453
PPIAP35 (GeneID 128192) | SID160756711 | -0.278 | 76.4 | -0.0342
APEX1 (GeneID 328) | SID160718397 | -0.441 | 73.1 | -0.692
APEX1 (GeneID 328) | SID160718407 | -2.38 | 34.6 | -1.92
APEX1 (GeneID 328) | SID160718417 | 1.33 | 108 | 0.633
AGFG1 (GeneID 3267) | SID160775303 | 0.106 | 84 | -0.338
AGFG1 (GeneID 3267) | SID160775304 | -0.548 | 71 | -1.04
AGFG1 (GeneID 3267) | SID160775305 | 0.479 | 91.4 | 1.12
RBBP5 (GeneID 5929) | SID160715712 | -1.1 | 60.1 | -1.07
RBBP5 (GeneID 5929) | SID160715713 | 0.451 | 90.9 | 0.544
RBBP5 (GeneID 5929) | SID160731647 | -0.296 | 76 | -0.566
AKAP3 (GeneID 10566) | SID160728750 | 0.0218 | 82.3 | 0.441
AKAP3 (GeneID 10566) | SID160728751 | 1.12 | 104 | 0.911
AKAP3 (GeneID 10566) | SID160728752 | 0.378 | 89.4 | -0.0481
KCNV2 (GeneID 169522) | SID160760350 | -0.341 | 75.1 | -0.0332
KCNV2 (GeneID 169522) | SID160760351 | -0.364 | 74.6 | -0.094
KCNV2 (GeneID 169522) | SID160760352 | -0.94 | 63.2 | -0.732
ATRN (GeneID 8455) | SID160720080 | -0.895 | 64.1 | 0.00504
ATRN (GeneID 8455) | SID160720081 | -1.15 | 58.9 | -1.38
ATRN (GeneID 8455) | SID160720082 | 0.708 | 96 | 0.393
RIMOC1 (GeneID 285636) | SID160763670 | -0.72 | 67.6 | -0.21
RIMOC1 (GeneID 285636) | SID160763671 | -0.753 | 66.9 | -0.0333
RIMOC1 (GeneID 285636) | SID160763672 | -0.0979 | 79.9 | -0.426
NELL1 (GeneID 4745) | SID160777951 | 0.62 | 94.2 | 0.271
NELL1 (GeneID 4745) | SID160777952 | -1.02 | 61.6 | -0.919
NELL1 (GeneID 4745) | SID160777953 | -2.42 | 33.7 | -2.13
FKBP1B (GeneID 2281) | SID160765801 | 0.427 | 90.4 | 1.44
FKBP1B (GeneID 2281) | SID160765810 | -0.964 | 62.7 | -1.05
FKBP1B (GeneID 2281) | SID160765821 | 0.0693 | 83.3 | 0.0764
MMD2 (GeneID 221938) | SID160761787 | 0.383 | 89.5 | -0.00315
MMD2 (GeneID 221938) | SID160761788 | -1.05 | 61 | -0.984
MMD2 (GeneID 221938) | SID160761790 | -1.38 | 54.3 | -1.36
CFAP90 (GeneID 134121) | SID160757301 | -1.06 | 60.9 | -0.236
CFAP90 (GeneID 134121) | SID160757302 | -0.78 | 66.4 | -0.887
CFAP90 (GeneID 134121) | SID160757303 | -0.212 | 77.7 | 0.375
GPR6 (GeneID 2830) | SID160773082 | 0.595 | 93.7 | 0.238
GPR6 (GeneID 2830) | SID160773091 | -2.6 | 30.1 | -1.93
GPR6 (GeneID 2830) | SID160773101 | 0.5 | 91.8 | -0.0292
MYC (GeneID 4609) | SID160777628 | -0.276 | 76.4 | 1.87
MYC (GeneID 4609) | SID160777630 | -0.65 | 69 | 1.36
MYC (GeneID 4609) | SID160777631 | 0.476 | 91.4 | 1.39
GYPB (GeneID 2994) | SID160733040 | -0.566 | 70.6 | -0.551
GYPB (GeneID 2994) | SID160733042 | 0.634 | 94.5 | 0.432
GYPB (GeneID 2994) | SID160774757 | 0.0181 | 82.2 | -0.146
MUC7 (GeneID 4589) | SID160777576 | -1.22 | 57.6 | -1.65
MUC7 (GeneID 4589) | SID160777577 | -0.85 | 65 | -0.801
MUC7 (GeneID 4589) | SID160777579 | -0.499 | 72 | -0.106
TMEM14EP (GeneID 645843) | SID160733956 | -1.35 | 55 | -0.452
TMEM14EP (GeneID 645843) | SID160769697 | -1.26 | 56.8 | -0.928
TMEM14EP (GeneID 645843) | SID160769698 | -0.268 | 76.6 | -0.298
PRPH (GeneID 5630) | SID160715076 | -0.0106 | 81.7 | -0.0169
PRPH (GeneID 5630) | SID160715077 | -0.615 | 69.6 | -0.447
PRPH (GeneID 5630) | SID160731556 | 0.731 | 96.4 | 1.43
PNMA2 (GeneID 10687) | SID160729046 | 9.02 (active) | 261 | 4.79
PNMA2 (GeneID 10687) | SID160729047 | -1.12 | 59.7 | -1.22
PNMA2 (GeneID 10687) | SID160729048 | 1.09 | 104 | 1.06
SERP2 (GeneID 387923) | SID160733195 | 1.61 | 114 | 0.917
SERP2 (GeneID 387923) | SID160765733 | 0.384 | 89.5 | -0.126
SERP2 (GeneID 387923) | SID160765734 | -1.44 | 53.2 | -1.53

11 neighbouring entries from above:
gene knocked down | PubChem SID | total luciferase, z-score | total luciferase, % of control | luciferase per cell, z-score
ATRN (GeneID 8455) | SID160720081 | -1.15 | 58.9 | -1.38
ATRN (GeneID 8455) | SID160720082 | 0.708 | 96 | 0.393
RIMOC1 (GeneID 285636) | SID160763670 | -0.72 | 67.6 | -0.21
RIMOC1 (GeneID 285636) | SID160763671 | -0.753 | 66.9 | -0.0333
RIMOC1 (GeneID 285636) | SID160763672 | -0.0979 | 79.9 | -0.426
NELL1 (GeneID 4745) | SID160777951 | 0.62 | 94.2 | 0.271
NELL1 (GeneID 4745) | SID160777952 | -1.02 | 61.6 | -0.919
NELL1 (GeneID 4745) | SID160777953 | -2.42 | 33.7 | -2.13
FKBP1B (GeneID 2281) | SID160765801 | 0.427 | 90.4 | 1.44
FKBP1B (GeneID 2281) | SID160765810 | -0.964 | 62.7 | -1.05
FKBP1B (GeneID 2281) | SID160765821 | 0.0693 | 83.3 | 0.0764
